Experimental data published in patent publication US20150125589A1, “TASTE-IMPROVING AGENT AND FOOD OR DRINK CONTAINING SAME” (NIPPON SUISAN KAISHA, LTD., priority 2011, published 2015).
At least one compound was matched to its structure with a doubt left.

Experiment: Evaluation method 2: quantitating improvement of unpleasant flavor of potassium chloride as K/Na ratio against standard solutions, chicken stock soup
Conditions: glycoside or aglycone 25 ppm final in standard solution 8; FIG. 17
Protocol: 1.32 g of Chinese soup stock granules (product name=“Marudori-gara Soup”, manufactured by Ajinomoto K.K., standard nutritional ingredients of 2.5 g of Chinese soup stock granules are shown in Table 1) was dissolved in 70 g of distilled water, and the mixture was filtered through filter paper (filter paper no. 2, manufactured by Advantec Toyo K.K.). Thereafter, 0.63 g of NaCl was added, and water was further added to obtain 100 g of chicken stock soup containing an equivalent of 1.26 percent table salt (Table 2, standard solution 1). The concentration of sodium chloride was decreased in a stepwise manner from the composition of the standard solution 1, and potassium chloride was added to produce multiple chicken stock soups (Table 2, standard solutions 2 to 8). […] Intensity of this unpleasant flavor and detailed taste were evaluated by organoleptic evaluation by an expert panel, and results of evaluation were classified in three stages, i.e. initial taste, middle taste, and aftertaste.
A desired concentration of test solution was added to one of the standard solutions of Table 2 to produce an evaluation solution. […] These evaluation solutions were compared to the standard solution, and the corresponding unpleasant flavor of potassium chloride was expressed as a K/Na ratio. […]

Structure (SMILES): C[C@@H]1O[C@@H](OC[C@H]2O[C@@H](Oc3c(-c4ccc(O)c(O)c4)oc4cc(O)cc(O)c4c3=O)[C@H](O)[C@@H](O)[C@@H]2O)[C@H](O)[C@H](O)[C@H]1O [rutin, Rutin]
- improvement effect against the unpleasant flavor of potassium chloride: high effect
